Some of the results follow. Hit calls seldom repeat between salt and free forms of one compound.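 In K562 cells expressing nanoluciferase-fused kinases, luminescence was recorded at 4 h intervals between 2 and 18 h, normalized as percent of control with DMSO at 100% and a positive control at 0%. A significant (2 sigma) signal drop marks a time point as decreased. The authors' rule for a hit is not shown and takes in more than the number of time points.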
Key:
Assay in all cases: number of time points (of 5) at which kinase-Nluc abundance scored as decreased, DMSO-normalised (count); higher = more persistent destabilization
[1] = compound: C#Cc1cccc(Nc2ncnc3cc(OCCOC)c(OCCO)cc23)c1 [Desmethyl Erlotinib (hydrochloride)]; conditions: 10 µM; K562; 2-18 h
Desmethyl Erlotinib = compound: C#Cc1cccc(Nc2ncnc3cc(OCCOC)c(OCCO)cc23)c1 [Desmethyl Erlotinib]; conditions: 10 µM; K562; 2-18 h
[2] = compound: C#Cc1cccc(Nc2ncnc3cc(OCCOC)c(OCCOC)cc23)c1 [Erlotinib (Hydrochloride)]; conditions: 10 µM; K562; 2-18 h
Erlotinib = compound: C#Cc1cccc(Nc2ncnc3cc(OCCOC)c(OCCOC)cc23)c1 [Erlotinib]; conditions: 10 µM; K562; 2-18 h
Icotinib (Hydrochloride) = compound: C#Cc1cccc(Nc2ncnc3cc4c(cc23)OCCOCCOCCO4)c1 [Icotinib (Hydrochloride)]; conditions: 10 µM; K562; 2-18 h
Icotinib = compound: C#Cc1cccc(Nc2ncnc3cc4c(cc23)OCCOCCOCCO4)c1 [Icotinib]; conditions: 10 µM; K562; 2-18 h
(Z)-Guggulsterone = compound: C/C=C1\C(=O)C[C@H]2[C@@H]3CCC4=CC(=O)CC[C@]4(C)[C@H]3CC[C@]12C [(Z)-Guggulsterone]; conditions: 10 µM; K562; 2-18 h
Guggulsterone = compound: C/C=C1\C(=O)C[C@H]2[C@@H]3CCC4=CC(=O)CC[C@]4(C)[C@H]3CC[C@]12C [Guggulsterone]; conditions: 10 µM; K562; 2-18 h
[3] = compound: C=CC(=O)N1CCN(c2ncnc3c(F)c(-c4c(O)cccc4F)c(Cl)cc23)CC1; conditions: K562, 2-18 h
Mobocertinib (succinate) = compound: C=CC(=O)Nc1cc(Nc2ncc(C(=O)OC(C)C)c(-c3cn(C)c4ccccc34)n2)c(OC)cc1N(C)CCN(C)C [Mobocertinib (succinate)]; conditions: 10 µM; K562; 2-18 h
Mobocertinib = compound: C=CC(=O)Nc1cc(Nc2ncc(C(=O)OC(C)C)c(-c3cn(C)c4ccccc34)n2)c(OC)cc1N(C)CCN(C)C [Mobocertinib]; conditions: 10 µM; K562; 2-18 h
Osimertinib (dimesylate) = compound: C=CC(=O)Nc1cc(Nc2nccc(-c3cn(C)c4ccccc34)n2)c(OC)cc1N(C)CCN(C)C [Osimertinib (dimesylate)]; conditions: 2.5 µM; K562; 2-18 h
Osimertinib mesylate = compound: C=CC(=O)Nc1cc(Nc2nccc(-c3cn(C)c4ccccc34)n2)c(OC)cc1N(C)CCN(C)C [Osimertinib mesylate]; conditions: 2.5 µM; K562; 2-18 h
Osimertinib = compound: C=CC(=O)Nc1cc(Nc2nccc(-c3cn(C)c4ccccc34)n2)c(OC)cc1N(C)CCN(C)C [Osimertinib]; conditions: 2.5 µM; K562; 2-18 h
[4] = compound: C=CC(=O)Nc1cc(Nc2nccc(-c3cn(C4CC4)c4ccccc34)n2)c(OC)cc1N(C)CCN(C)C [Almonertinib (hydrochloride)]; conditions: 2.5 µM; K562; 2-18 h
Almonertinib = compound: C=CC(=O)Nc1cc(Nc2nccc(-c3cn(C4CC4)c4ccccc34)n2)c(OC)cc1N(C)CCN(C)C [Almonertinib]; conditions: 2.5 µM; K562; 2-18 h
AV-412 (free base) = compound: C=CC(=O)Nc1cc2c(Nc3ccc(F)c(Cl)c3)ncnc2cc1C#CC(C)(C)N1CCN(C)CC1 [AV-412 (free base)]; conditions: 2.5 µM; K562; 2-18 h
[5] = compound: C=CC(=O)Nc1cc2c(Nc3ccc(F)c(Cl)c3)ncnc2cc1C#CC(C)(C)N1CCN(C)CC1; conditions: 2.5 µM; K562; 2-18 h
[6] = compound: CC(=O)N[C@H](Cc1ccc(O)cc1)C(=O)N[C@H](CCCN=C(N)N)C(=O)N[C@H](Cc1ccccc1)C(N)=O; conditions: 10 µM; K562; 2-18 h
[7] = compound: CC(=O)Nc1cccc(-n2c(=O)n(C3CC3)c(=O)c3c(Nc4ccc(I)cc4F)n(C)c(=O)c(C)c32)c1 [Trametinib (DMSO solvate)]; conditions: 10 µM; K562; 2-18 h

Sequences of proteins named here, by UniProt entry; tags and fusion partners are left off. A change or cut given only in a name is not applied to a line headed by its entry.
UniProt P06239: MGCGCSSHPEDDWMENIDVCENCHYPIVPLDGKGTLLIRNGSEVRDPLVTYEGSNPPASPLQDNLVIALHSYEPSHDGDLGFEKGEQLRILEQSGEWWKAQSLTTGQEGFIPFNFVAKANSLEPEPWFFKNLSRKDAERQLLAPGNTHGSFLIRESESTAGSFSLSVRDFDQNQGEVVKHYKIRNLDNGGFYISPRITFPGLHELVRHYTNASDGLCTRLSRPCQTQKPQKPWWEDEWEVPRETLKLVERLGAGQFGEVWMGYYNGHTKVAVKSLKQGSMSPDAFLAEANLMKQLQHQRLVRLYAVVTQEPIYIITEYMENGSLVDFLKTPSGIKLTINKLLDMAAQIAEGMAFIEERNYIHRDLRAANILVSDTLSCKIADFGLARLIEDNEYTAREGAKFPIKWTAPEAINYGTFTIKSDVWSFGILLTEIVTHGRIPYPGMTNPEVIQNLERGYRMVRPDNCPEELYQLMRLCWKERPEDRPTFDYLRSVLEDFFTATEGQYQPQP
UniProt P51451: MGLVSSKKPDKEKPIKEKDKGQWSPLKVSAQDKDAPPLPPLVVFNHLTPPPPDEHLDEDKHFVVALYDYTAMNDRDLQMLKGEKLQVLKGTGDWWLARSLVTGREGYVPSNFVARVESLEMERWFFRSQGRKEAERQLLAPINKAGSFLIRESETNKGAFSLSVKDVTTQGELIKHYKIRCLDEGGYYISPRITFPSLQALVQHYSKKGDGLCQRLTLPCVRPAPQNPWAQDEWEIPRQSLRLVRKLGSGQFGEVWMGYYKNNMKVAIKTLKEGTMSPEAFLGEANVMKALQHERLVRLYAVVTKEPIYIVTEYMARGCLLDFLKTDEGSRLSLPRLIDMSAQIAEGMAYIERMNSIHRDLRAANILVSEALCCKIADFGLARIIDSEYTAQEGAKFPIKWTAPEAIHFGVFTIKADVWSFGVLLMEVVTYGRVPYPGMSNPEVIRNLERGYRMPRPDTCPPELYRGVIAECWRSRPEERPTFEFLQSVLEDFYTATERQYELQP
UniProt Q15118, whole entry, looked up: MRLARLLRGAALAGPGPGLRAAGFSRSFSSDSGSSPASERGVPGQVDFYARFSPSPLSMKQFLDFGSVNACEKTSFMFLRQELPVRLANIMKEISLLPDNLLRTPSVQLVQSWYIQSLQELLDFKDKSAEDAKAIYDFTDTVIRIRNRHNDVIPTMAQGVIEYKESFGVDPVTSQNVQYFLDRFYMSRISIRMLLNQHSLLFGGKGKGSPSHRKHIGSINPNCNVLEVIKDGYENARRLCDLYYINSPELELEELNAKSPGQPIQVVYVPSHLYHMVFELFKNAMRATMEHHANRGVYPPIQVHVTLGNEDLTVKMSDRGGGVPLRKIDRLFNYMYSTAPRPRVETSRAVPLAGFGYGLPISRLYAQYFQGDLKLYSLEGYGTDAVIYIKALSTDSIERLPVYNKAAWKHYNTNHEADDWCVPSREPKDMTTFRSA

Measured: number of time points

PRKCA (UniProt P17252)
0: [1] | Desmethyl Erlotinib | [2] | Erlotinib | Icotinib (Hydrochloride) | Icotinib | (Z)-Guggulsterone | Guggulsterone | [3]; 2.5 µM | [3]; 10 µM | Mobocertinib (succinate) | Mobocertinib | Osimertinib (dimesylate) | Osimertinib mesylate | Osimertinib | [4] | Almonertinib | AV-412 (free base) | [5] | [6] | [7]

EGFR_G719S_T790M (UniProt P00533)
1: [1]
0: Desmethyl Erlotinib | Icotinib (Hydrochloride) | Icotinib | (Z)-Guggulsterone | Guggulsterone | [3]; 2.5 µM | [3]; 10 µM | Mobocertinib (succinate) | Mobocertinib | [4] | Almonertinib | AV-412 (free base) | [5] | [6] | [7]

EGFR (UniProt P00533)
3: [1]
0: Desmethyl Erlotinib | Icotinib (Hydrochloride) | Icotinib | (Z)-Guggulsterone | Guggulsterone | [3]; 2.5 µM | [3]; 10 µM | Mobocertinib (succinate) | Mobocertinib | [4] | Almonertinib | AV-412 (free base) | [5] | [6] | [7]

LCK (UniProt P06239)
0: [1] | Desmethyl Erlotinib | Icotinib (Hydrochloride) | Icotinib | (Z)-Guggulsterone | Guggulsterone | [3]; 2.5 µM | [3]; 10 µM | Mobocertinib (succinate) | Mobocertinib | Osimertinib (dimesylate) | Osimertinib mesylate | Osimertinib | [4] | Almonertinib | AV-412 (free base) | [5] | [6] | [7]

EGFR_L858R (UniProt P00533)
0: [1] | Desmethyl Erlotinib | Icotinib (Hydrochloride) | Icotinib | (Z)-Guggulsterone | Guggulsterone | [3]; 2.5 µM | [3]; 10 µM | Mobocertinib (succinate) | Mobocertinib | [4] | Almonertinib | AV-412 (free base) | [5] | [6] | [7]

BLK (UniProt P51451)
4: Osimertinib mesylate | AV-412 (free base) | [5]
1: Osimertinib (dimesylate) | Almonertinib
0: [1] | Desmethyl Erlotinib | [2] | Erlotinib | Icotinib (Hydrochloride) | Icotinib | (Z)-Guggulsterone | Guggulsterone | [3]; 2.5 µM | [3]; 10 µM | Mobocertinib (succinate) | Mobocertinib | Osimertinib | [4] | [6] | [7]

EGFR_G719S (UniProt P00533)
0: Desmethyl Erlotinib | Icotinib (Hydrochloride) | Icotinib | (Z)-Guggulsterone | Guggulsterone | [3]; 2.5 µM | [3]; 10 µM | Mobocertinib (succinate) | Mobocertinib | [4] | Almonertinib | [5] | [6]
3: AV-412 (free base)
2: [1] | [7]

PDK1 (UniProt Q15118)
0: [1] | Desmethyl Erlotinib | [2] | Erlotinib | Icotinib (Hydrochloride) | Icotinib | (Z)-Guggulsterone | Guggulsterone | [3]; 2.5 µM | [3]; 10 µM | Mobocertinib (succinate) | Mobocertinib | Osimertinib (dimesylate) | Osimertinib mesylate | Osimertinib | [4] | Almonertinib | AV-412 (free base) | [5] | [6] | [7]
